According to the supplement of paper PMC7666118:
This is one part of the list.

Amino acid sequences for entries named in this document (tags omitted). A change or cut given only in a name is not applied to a line headed by its entry.
UniProt O60343: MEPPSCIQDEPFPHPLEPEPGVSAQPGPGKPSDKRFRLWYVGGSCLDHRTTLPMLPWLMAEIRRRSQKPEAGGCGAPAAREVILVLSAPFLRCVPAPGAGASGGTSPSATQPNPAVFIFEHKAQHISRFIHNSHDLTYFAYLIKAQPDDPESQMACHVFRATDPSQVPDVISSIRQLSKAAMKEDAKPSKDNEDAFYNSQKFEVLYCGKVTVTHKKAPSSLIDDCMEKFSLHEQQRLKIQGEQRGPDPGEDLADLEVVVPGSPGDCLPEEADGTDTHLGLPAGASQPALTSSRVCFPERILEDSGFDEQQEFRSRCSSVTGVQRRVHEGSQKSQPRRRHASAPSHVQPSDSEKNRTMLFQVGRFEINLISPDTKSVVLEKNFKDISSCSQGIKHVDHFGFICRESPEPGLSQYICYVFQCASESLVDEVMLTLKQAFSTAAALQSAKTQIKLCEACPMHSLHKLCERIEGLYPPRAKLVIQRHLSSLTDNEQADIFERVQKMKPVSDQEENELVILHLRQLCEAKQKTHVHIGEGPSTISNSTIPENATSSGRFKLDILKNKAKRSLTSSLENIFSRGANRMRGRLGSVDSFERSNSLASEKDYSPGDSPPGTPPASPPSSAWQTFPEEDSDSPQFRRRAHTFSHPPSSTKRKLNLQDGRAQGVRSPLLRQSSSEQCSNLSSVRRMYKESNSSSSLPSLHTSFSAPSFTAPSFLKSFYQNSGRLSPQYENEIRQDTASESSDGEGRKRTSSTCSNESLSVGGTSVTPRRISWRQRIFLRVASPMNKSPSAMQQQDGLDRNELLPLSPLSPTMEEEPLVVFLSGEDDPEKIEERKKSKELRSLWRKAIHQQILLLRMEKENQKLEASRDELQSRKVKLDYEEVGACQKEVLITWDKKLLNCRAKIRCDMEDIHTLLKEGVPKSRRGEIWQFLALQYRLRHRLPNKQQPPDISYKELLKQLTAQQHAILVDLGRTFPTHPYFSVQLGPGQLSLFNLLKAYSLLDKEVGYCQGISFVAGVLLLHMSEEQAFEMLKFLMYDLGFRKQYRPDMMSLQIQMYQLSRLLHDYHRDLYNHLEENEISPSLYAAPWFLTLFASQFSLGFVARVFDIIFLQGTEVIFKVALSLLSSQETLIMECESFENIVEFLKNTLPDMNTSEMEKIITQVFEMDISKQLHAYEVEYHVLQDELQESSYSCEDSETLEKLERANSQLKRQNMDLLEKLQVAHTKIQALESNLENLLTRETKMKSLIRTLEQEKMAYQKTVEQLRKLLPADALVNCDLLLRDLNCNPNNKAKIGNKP
UniProt P37802: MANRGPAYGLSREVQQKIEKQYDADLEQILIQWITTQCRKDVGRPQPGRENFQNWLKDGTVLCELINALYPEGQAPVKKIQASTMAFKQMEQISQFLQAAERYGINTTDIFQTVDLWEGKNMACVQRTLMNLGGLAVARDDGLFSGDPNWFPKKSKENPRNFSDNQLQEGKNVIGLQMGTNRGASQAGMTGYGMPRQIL
UniProt P31948, whole entry, looked up: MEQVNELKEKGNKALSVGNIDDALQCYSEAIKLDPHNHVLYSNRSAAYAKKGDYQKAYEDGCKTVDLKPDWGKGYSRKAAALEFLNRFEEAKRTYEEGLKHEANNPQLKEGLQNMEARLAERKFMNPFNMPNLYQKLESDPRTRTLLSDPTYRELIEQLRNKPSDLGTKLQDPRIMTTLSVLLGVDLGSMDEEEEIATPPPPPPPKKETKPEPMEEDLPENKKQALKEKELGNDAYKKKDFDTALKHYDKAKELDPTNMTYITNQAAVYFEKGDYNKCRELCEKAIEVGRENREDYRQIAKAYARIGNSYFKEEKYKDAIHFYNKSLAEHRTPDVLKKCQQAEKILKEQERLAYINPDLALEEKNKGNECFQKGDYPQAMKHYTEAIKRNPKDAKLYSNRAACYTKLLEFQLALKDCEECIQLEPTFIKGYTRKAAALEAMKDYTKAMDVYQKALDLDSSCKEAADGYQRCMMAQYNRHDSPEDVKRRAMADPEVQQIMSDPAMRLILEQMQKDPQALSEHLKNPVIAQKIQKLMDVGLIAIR
UniProt P37837: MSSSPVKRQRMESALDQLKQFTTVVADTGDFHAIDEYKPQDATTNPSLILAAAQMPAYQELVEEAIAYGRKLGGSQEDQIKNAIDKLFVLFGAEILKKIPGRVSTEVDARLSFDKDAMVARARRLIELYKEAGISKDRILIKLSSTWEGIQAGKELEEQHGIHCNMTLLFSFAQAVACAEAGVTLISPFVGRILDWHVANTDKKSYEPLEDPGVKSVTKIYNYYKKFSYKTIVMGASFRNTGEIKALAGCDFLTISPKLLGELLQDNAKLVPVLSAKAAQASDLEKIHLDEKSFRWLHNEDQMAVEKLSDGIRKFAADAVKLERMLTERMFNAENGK
UniProt Q9Y5Y6: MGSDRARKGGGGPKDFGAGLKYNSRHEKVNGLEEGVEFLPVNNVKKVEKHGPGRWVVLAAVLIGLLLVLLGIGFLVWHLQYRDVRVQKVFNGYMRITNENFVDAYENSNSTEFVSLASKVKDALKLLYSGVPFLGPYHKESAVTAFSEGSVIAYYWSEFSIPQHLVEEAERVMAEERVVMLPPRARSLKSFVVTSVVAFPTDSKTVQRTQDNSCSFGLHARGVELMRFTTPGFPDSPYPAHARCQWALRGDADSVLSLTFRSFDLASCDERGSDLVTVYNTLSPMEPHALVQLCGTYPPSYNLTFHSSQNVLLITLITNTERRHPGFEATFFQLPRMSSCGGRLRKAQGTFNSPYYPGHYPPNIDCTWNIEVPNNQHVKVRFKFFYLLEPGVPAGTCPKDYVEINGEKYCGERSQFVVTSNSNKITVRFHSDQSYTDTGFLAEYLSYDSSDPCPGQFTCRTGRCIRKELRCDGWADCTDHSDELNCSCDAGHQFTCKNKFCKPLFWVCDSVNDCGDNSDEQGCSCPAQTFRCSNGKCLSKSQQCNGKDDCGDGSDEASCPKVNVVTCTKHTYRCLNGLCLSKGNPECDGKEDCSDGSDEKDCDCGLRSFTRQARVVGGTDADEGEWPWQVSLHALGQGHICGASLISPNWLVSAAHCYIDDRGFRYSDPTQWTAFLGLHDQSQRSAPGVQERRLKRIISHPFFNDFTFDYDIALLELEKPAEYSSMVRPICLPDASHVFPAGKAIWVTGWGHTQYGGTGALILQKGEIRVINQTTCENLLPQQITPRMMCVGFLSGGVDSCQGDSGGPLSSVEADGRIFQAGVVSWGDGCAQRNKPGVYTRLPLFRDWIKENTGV
UniProt Q15526: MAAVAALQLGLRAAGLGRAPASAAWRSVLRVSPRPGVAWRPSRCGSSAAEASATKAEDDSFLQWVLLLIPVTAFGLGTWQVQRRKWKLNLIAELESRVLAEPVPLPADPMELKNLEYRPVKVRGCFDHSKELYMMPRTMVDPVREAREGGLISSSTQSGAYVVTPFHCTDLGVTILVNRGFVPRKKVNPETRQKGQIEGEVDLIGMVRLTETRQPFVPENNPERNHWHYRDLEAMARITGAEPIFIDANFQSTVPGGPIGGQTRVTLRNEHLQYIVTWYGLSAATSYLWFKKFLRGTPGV
UniProt Q86TI0: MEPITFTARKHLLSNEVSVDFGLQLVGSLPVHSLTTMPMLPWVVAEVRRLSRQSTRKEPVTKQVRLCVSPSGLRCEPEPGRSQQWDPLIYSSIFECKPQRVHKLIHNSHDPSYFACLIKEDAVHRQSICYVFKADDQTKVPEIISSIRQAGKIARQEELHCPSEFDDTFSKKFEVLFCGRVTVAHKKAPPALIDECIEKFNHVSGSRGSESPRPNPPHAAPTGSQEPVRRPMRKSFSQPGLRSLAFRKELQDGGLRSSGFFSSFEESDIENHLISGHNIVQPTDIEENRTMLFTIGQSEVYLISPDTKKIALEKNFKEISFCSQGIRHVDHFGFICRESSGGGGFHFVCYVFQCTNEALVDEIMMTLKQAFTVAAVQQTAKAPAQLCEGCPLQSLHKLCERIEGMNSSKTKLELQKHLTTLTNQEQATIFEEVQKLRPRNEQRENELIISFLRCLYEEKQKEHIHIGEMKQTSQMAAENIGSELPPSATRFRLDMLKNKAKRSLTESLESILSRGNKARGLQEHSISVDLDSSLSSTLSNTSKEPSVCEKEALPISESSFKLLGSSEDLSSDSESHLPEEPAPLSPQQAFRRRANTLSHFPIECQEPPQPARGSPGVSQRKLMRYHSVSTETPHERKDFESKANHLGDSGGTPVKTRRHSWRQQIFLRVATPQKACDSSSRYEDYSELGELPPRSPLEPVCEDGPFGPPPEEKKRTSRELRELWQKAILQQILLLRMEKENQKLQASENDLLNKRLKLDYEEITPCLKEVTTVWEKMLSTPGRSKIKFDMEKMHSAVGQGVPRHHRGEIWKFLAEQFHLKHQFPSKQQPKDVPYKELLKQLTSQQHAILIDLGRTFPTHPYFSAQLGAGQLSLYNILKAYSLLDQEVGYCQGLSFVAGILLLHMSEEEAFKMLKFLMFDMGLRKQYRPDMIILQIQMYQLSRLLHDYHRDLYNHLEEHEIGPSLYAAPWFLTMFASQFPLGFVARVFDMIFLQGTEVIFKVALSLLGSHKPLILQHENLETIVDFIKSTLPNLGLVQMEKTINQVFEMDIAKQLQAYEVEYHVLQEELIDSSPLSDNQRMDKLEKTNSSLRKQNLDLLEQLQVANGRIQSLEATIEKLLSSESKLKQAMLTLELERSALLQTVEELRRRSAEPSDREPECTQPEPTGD
UniProt P24557: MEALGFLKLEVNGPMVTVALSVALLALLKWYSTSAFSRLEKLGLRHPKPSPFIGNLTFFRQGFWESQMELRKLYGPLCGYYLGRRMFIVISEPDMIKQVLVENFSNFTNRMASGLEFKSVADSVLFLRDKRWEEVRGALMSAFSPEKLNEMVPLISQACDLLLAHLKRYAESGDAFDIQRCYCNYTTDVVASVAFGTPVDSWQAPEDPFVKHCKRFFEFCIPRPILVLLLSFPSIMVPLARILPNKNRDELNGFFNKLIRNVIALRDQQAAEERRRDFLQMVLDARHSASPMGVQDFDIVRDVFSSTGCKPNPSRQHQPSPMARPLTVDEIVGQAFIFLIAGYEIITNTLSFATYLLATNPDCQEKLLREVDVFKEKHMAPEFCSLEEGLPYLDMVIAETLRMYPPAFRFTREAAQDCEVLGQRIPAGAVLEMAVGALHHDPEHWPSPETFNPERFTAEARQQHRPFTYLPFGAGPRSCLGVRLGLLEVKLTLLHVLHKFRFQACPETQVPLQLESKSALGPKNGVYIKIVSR
UniProt Q9UH36: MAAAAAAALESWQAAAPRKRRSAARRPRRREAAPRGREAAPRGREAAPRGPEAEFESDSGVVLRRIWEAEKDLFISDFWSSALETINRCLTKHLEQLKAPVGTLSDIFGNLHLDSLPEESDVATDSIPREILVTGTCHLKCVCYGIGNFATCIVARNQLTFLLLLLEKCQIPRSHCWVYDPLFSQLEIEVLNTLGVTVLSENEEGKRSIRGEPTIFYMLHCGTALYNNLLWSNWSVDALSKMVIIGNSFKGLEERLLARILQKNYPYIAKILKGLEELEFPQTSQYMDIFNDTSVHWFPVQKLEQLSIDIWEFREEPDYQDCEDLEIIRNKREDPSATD
UniProt P09132: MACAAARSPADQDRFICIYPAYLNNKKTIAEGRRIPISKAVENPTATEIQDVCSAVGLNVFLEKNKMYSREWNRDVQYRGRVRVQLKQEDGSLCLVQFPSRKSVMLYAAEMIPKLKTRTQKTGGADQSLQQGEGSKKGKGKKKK
UniProt Q9P0N9: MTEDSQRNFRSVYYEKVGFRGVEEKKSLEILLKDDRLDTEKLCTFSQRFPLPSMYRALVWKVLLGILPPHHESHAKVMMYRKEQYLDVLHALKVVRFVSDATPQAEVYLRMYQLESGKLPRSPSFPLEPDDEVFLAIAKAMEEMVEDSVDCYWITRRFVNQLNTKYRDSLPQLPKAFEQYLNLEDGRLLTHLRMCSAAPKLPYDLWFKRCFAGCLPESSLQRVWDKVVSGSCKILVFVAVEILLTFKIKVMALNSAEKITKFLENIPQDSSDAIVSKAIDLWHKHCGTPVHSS
UniProt O75528: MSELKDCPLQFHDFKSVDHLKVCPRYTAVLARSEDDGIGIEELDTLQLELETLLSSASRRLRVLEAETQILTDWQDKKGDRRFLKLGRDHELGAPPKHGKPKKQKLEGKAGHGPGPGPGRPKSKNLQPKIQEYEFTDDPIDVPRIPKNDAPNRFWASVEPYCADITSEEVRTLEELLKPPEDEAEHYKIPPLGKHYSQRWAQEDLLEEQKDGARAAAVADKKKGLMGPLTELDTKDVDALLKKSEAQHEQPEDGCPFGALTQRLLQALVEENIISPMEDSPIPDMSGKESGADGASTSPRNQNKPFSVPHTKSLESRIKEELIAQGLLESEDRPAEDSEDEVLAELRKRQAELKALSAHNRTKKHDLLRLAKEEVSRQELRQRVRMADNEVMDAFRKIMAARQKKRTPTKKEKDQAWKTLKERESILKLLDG
UniProt Q15369, whole entry: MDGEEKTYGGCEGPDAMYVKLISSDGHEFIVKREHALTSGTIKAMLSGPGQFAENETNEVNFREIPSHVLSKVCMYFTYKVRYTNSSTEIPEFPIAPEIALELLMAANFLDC

The targets below were run with COc1ccc(Cn2ccc3cc(C)c(C(=O)NO)cc32)cc1 (assay: dose-dependent thermal stabilisation call (2D-TPP, DLPTP, 10% FDR) (binary (1 = stabilised)); higher = stabilised by the compound). Details: system: HL-60 intact cells; concentration range 0.04-10 µM.
Procedure: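 2D thermal proteome profiling in intact HL-60 cells treated with BRD-3811 (0, 0.04, 0.29, 2, 10 uM) for 90 min at 37 C, then heated 3 min at one of 12 temperatures (42-63.9 C). Soluble protein was quantified by TMT10 MS. The value is the DLPTP call of the paper: dose-dependent thermal stabilisation over all temperatures at 10% FDR (F-test of a dose-response against a flat model); one experiment, one call per tested protein.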
STRBP (UniProt Q96SI9) was tested, and the “dose-dependent thermal stabilisation call” value was inactive: 0.
In the case of SR140 (UniProt O15042), the “dose-dependent thermal stabilisation call” value is reported as inactive: 0.
SPRYD3 (UniProt Q8NCJ5) was tested, and the “dose-dependent thermal stabilisation call” value was inactive: 0.
With TBC1D4 (UniProt O60343) the “dose-dependent thermal stabilisation call” value was inactive: 0.
SUPT6H (UniProt Q7KZ85) was tested, and the “dose-dependent thermal stabilisation call” value was inactive: 0.
For TBC1D10A (UniProt Q9BXI6), the “dose-dependent thermal stabilisation call” value was inactive: 0.
With STEAP3 (UniProt Q658P3) the “dose-dependent thermal stabilisation call” value was inactive: 0.
In the case of TAGLN2 (UniProt P37802), the “dose-dependent thermal stabilisation call” value is reported as inactive: 0.
In the case of STIP1 (UniProt P31948), the “dose-dependent thermal stabilisation call” value is reported as inactive: 0.
For TARBP1 (UniProt Q13395), the “dose-dependent thermal stabilisation call” value was inactive: 0.
For TALDO1 (UniProt P37837), the “dose-dependent thermal stabilisation call” value was inactive: 0.
For SYAP1 (UniProt Q96A49), the “dose-dependent thermal stabilisation call” value was inactive: 0.
For ST14 (UniProt Q9Y5Y6), the “dose-dependent thermal stabilisation call” value was inactive: 0.
SURF1 (UniProt Q15526) was tested, and the “dose-dependent thermal stabilisation call” value was inactive: 0.
For SYTL1 (UniProt Q8IYJ3), the “dose-dependent thermal stabilisation call” value was inactive: 0.
In the case of SPTAN1 (UniProt Q13813), the “dose-dependent thermal stabilisation call” value is reported as inactive: 0.
For TBC1D1 (UniProt Q86TI0), the “dose-dependent thermal stabilisation call” value was inactive: 0.
In the case of TBXAS1 (UniProt P24557), the “dose-dependent thermal stabilisation call” value is reported as inactive: 0.
In the case of SRRD (UniProt Q9UH36), the “dose-dependent thermal stabilisation call” value is reported as inactive: 0.
In the case of SRP19 (UniProt P09132), the “dose-dependent thermal stabilisation call” value is reported as inactive: 0.
With TAF6 (UniProt P49848) the “dose-dependent thermal stabilisation call” value was inactive: 0.
With TBC1D7 (UniProt Q9P0N9) the “dose-dependent thermal stabilisation call” value was inactive: 0.
For TADA3L (UniProt O75528), the “dose-dependent thermal stabilisation call” value was inactive: 0.
ST6GAL1 (UniProt P15907) was tested, and the “dose-dependent thermal stabilisation call” value was inactive: 0.
For SPPL2B (UniProt Q8TCT7), the “dose-dependent thermal stabilisation call” value was inactive: 0.
With TGM3 (UniProt Q08188) the “dose-dependent thermal stabilisation call” value was inactive: 0.
With TCEB1 (UniProt Q15369) the “dose-dependent thermal stabilisation call” value was inactive: 0.
